Data as given in patent US20030040050A1 (published 2003).
Results are given in words; binding and its absence hold for the method and conditions named. In cells and extracts the contact can be indirect. Some results given as binding are weak or reduced against the parent protein; the word gives no strength. Where a sequence is shown, tags or fusion partners need not be part of it.

B1: T7-TAB2-Full length (protein)
chain: MASMTGGQQMGMAQGSHQIDFQVLHDLRQKFPEVPEVVVSRCMLQNNNNLDACCAVLSQESTRYLYGEGDLNFSDDSGISGLRNHMTSLNLDLQSQNIYHHGREGSRMNGSRTLTHSISDGQLQGGQSNSELFQQEPQTAPAQVPQGFNVFGMSSSSGASNSAPHLGFHLGSKGTSSLSQQTPRFNPIMVTLAPNIQTGRNTPTSLHIHGVPPPVLNSPQGNSIYIRPYITTPGGTTRQTQQHSGWVSQFNPMNPQQVYQPSQPGPWTTCPASNPLSHTSSQQPNQQGHQTSHVYMPISSPTTSQPPTIHSSGSSQSSAHSQYNIQNISTGPRKNQIEIKLEPPQRNNSSKLRSSGPRTSSTSSSVNSQTLNRNQPTVYIAASPPNTDELMSRSQPKVYISANAATGDEQVMRNQPTLFISTNSGASAASRNMSGQVSMGPAFIHHHPPKSRAIGNNSATSPRVVVTQPNTKYTFKITVSPNKPPAVSPGVVSPTFELTNLLNHPDHYVETENIQHLTDPTLAHVDRISETRKLSMGSDDAAYTQALLVHQKARMERLQRELEIQKKKLDKLKSEVNEMENNLTRRRLKRSNSISQIPSLEEMQQLRSCNRQLQIDIDCLTKEIDLFQARGPHFNPSAIHNFYDNIGFVGPVPPKPKDQRSIIKTPKTQDTEDDEGAQWNCTACTFLNHPALIRCEQCEMPRHF
B2: T7-TAB2C (protein)
chain: MASMTGGQQMGMRNQPTLFISTNSGASAASRNMSGQVSMGPAFIHHHPPKSRAIGNNSATSPRVVVTQPNTKYTFKITVSPNKPPAVSPGVVSPTFELTNLLNHPDHYVETENIQHLTDPTLAHVDRISETRKLSMGSDDAAYTQALLVHQKARMERLQRELEIQKKKLDKLKSEVNEMENNLTRRRLKRSNSISQIPSLEEMQQLRSCNRQLQIDIDCLTKEIDLFQARGPHFNPSAIHNFYDNIGFVGPVPPKPKDQRSIIKTPKTQDTEDDEGAQWNCTACTFLNHPALIRCEQCEMPRHF

What was measured:
HA-TAK1 [1] = target: T1, HA-TAK1 (UniProt Q62073 1-579, limits assumed); assay: coimmunoprecipitation from transfected 293 cells: IP anti-T7, immunoblot anti-HA
T1 construct: I recall the cited Yamaguchi 1995 clone as mouse TAK1 (Q62073); human TAK1 is O43318; also called HA-tagged TAK1 protein
T1 sequence (looked up): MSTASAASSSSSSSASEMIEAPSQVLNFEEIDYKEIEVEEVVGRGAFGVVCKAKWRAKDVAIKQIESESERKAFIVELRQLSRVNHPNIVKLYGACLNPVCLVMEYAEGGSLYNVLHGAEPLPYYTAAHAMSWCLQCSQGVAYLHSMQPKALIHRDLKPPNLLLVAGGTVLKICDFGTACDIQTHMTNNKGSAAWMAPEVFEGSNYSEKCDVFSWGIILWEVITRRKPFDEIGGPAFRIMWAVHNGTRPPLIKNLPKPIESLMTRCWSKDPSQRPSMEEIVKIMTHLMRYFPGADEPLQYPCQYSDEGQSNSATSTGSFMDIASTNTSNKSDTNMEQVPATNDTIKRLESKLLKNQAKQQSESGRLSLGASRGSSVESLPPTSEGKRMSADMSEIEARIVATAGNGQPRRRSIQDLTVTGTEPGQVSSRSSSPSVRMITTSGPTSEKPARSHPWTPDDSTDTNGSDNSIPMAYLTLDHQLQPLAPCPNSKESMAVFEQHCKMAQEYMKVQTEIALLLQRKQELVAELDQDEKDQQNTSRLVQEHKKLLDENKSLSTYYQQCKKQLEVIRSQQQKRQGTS
Experimental: 293 cells were transiently transfected with an expression vector for HA-TAK1 in combination with empty vector (−) or with expression vectors for T7-TAB2-Full length (Full), T7-TAB2C (C), or T7-TAB2N (N) as indicated. Cell extracts were immunoprecipitated (IP) with anti-T7 (7) or mouse IgG (C). Coprecipitated HA-TAK1 was detected by immunoblotting (IB) with anti-HA (upper panel, left). The amounts of immunoprecipitated T7-TAB2 proteins were determined with anti-T7 (lower panel). Whole cell extracts were immunoblotted with anti-HA to determine total amounts of HA-TAK1 (upper panel, right). Schematic representation of various TAB2 constructs is shown in the lower part. The coiled-coil regions are indicated by solid boxes.

HA-TAK1 [2] = target: T1, HA-TAK1; assay: coimmunoprecipitation from transfected 293 cells: IP anti-T7, immunoblot anti-HA (FIG. 1B legend)
HA-TAK1 [3] = target: T1, HA-TAK1; assay: coimmunoprecipitation from 293 cells coexpressing T7-TAB2C, Flag-TRAF6 and HA-TAK1: IP anti-HA, immunoblot anti-T7

Binder	binding (HA-TAK1 [1])	binding (HA-TAK1 [2])	binding (HA-TAK1 [3])
B1	binds	binds	–
B2	binds	–	binds
